The list shows a part of the results. These are further read-outs of the screen, such as a control signal, another cell line or another target. No call is given for them. Most of these compounds were active or inconclusive in the main read-out, so they are no random draw. Potencies come from curve fits of mixed quality, noted in brackets.

The assay in a line: qHTS Assay for Modulators of Lamin A Splicing. Conditions: HeLa LMNA splicing GFP/RFP minigene ratio, 48 h. The essentials:
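Read-out is the ratio of GFP to DsRed2 object intensity, acquired by 488 nm laser-scanning cytometry on HeLa lamin A-EGFP minigene reporter cells. Compound incubation 48 hrs at 37 °C in Opti-MEM with 2% FBS; DMSO 0.5% final.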

[1] abbreviates: measured here: GFP splicing reporter channel.
Where [2] appears, read: measured here: RFP viability control channel.

For the compound `CN(C)S(=O)(=O)N(CC(=O)N1CCC(Cc2ccccc2)CC1)c1ccccc1`, the AC50 is, setting by setting: under setting [1], 0.0224 µM [rising, full curve, poor fit]; under setting [2], 0.0282 µM [rising, full curve, poor fit].

On to `Cc1nn(-c2cccc(Cl)c2)c2nc(-c3ccncc3)cc(C(=O)N3CCOCC3)c12`, for which the AC50 is 3.98 µM [falling, full curve] under setting [1] and 4.47 µM [falling, full curve, poor fit] under setting [2].

Consider `CC1(C)Cc2c(sc3nc(-c4cccs4)n(N)c(=O)c23)CO1`, for which the AC50 runs as follows: under setting [1], 10 µM [rising, partial curve]; under setting [2], 17.8 µM [rising, single point].

For the compound `COC(=O)c1[nH]c2ccccc2c1NC(=O)CCN1CCSCC1`, the AC50 is 3.16 µM [rising, partial curve, poor fit] under setting [1] and 3.98 µM [rising, full curve, poor fit] under setting [2].

As for `CSc1cccc(NC(=O)CN(C)S(=O)(=O)c2ccc(C)cc2)c1`, under setting [2], the AC50 is 35.5 µM [rising, single point].

Regarding `Fc1ccc(-c2nn(-c3ccc(Cl)cc3)c3c2cnc2ccc(F)cc23)cc1`, under setting [2], the AC50 is 0.00282 µM [rising, full curve, poor fit].

Consider `COc1ccccc1NC(=O)c1ccccc1NC(=O)c1cc(Cl)ccc1NC(=O)c1ccco1`, for which, under setting [1], the AC50 is 31.6 µM [rising, single point].

Regarding `N#C/C(=C/c1ccncc1)c1nc2ccccc2s1`, under setting [2], the AC50 is 35.5 µM [rising, single point].

`Cc1ccc(Nc2sc(C(=O)c3ccc(F)cc3)c(N)c2S(=O)(=O)c2ccc(C)cc2)cc1`: the AC50 under setting [1] was 2.51 µM [rising, full curve] and the AC50 under setting [2] was 3.16 µM [rising, full curve].

For `Cc1ccc(NC(=O)C2CCCN(S(=O)(=O)c3ccc4c(c3)oc(=O)n4C)C2)nc1` (stereo not given), the AC50 reads like this: under setting [1], 11.2 µM [rising, partial curve, poor fit]; under setting [2], 12.6 µM [rising, partial curve].

In the case of `Cn1cnnc1-c1cccc(NC(=O)c2cc(F)c(F)cc2Cl)c1`, the AC50 under setting [2] is 1 µM [falling, full curve, poor fit].

`O=C(Cc1ccc(Br)cc1)Nc1ccc(Cl)cc1`: the AC50 was 22.4 µM [falling, single point] under setting [1] and 35.5 µM [falling, single point] under setting [2].

On to `COc1ccc(/C=C/c2nc(-c3ccccc3O)n[nH]2)cc1OC`, for which the AC50 is, setting by setting: under setting [1], 12.6 µM [rising, single point]; under setting [2], 22.4 µM [rising, partial curve].

With `COc1ccc(C(=O)Nc2nc(-c3ccc(OC)cc3)c(-c3ccc([N+](=O)[O-])cc3)s2)cc1`, the concentration at half-maximal activity (AC50) by setting is: under setting [1], 4.47 µM [rising, single point]; under setting [2], 4.47 µM [rising, single point].

With `O=C(Nc1cccc(Cl)c1)c1cc(N=Nc2ccc([N+](=O)[O-])cc2Cl)ccc1O`, the AC50 by setting is: under setting [1], 5.62 µM [rising, single point]; under setting [2], 3.98 µM [rising, full curve].

`CCOc1cc(C(=O)N/N=C/C2CC=CCC2)cc(OCC)c1OCC` (stereo not given): the AC50 was 35.5 µM [rising, single point] under setting [1] and 20 µM [rising, single point] under setting [2].

With `CC(=O)C(=Cc1cc(C)n(-c2ccccc2)c1C)C(C)=O`, under setting [2], the AC50 was 11.2 µM [rising, partial curve].

Regarding `Cc1ccc(C2(C)NC(=O)N(CC(=O)NCc3cccs3)C2=O)cc1` (stereo not given), the AC50 under setting [1] is 0.01 µM [falling, full curve, poor fit].

Take `COc1ccc(CNc2nc(-c3ccoc3)nc3ccccc23)c(OC)c1`: the AC50 under setting [1] is 15.8 µM [falling, partial curve].

Regarding `CS(=O)(=O)Nc1cccc(-c2ccc3ncnc(NCc4cccs4)c3c2)c1`, the AC50 was 20 µM [falling, partial curve] under setting [1] and 20 µM [falling, partial curve] under setting [2].

Turning to `OC(COc1ccc2c(c1)OCO2)CN1CCN(c2ccc(F)cc2)CC1` (stereo not given), under setting [1], the AC50 is 0.02 µM [falling, full curve, poor fit].

Regarding `Cn1c2c(c(=O)n(C)c1=O)C(C(F)(F)F)(C(F)(F)F)N=C(CCC1CCCCC1)N2`, the AC50 under setting [2] was 12.6 µM [rising, partial curve, poor fit].

As to `O=C(N/N=C/c1cn(-c2ccccc2)nc1-c1cccs1)c1ccccc1F`, the AC50 under setting [2] is 35.5 µM [rising, single point].

Take `COc1ccccc1C(=O)NCC(=O)N/N=C/c1cc(Br)ccc1OCc1ccccc1`: the concentration at half-maximal activity (AC50) under setting [2] is 11.2 µM [rising, partial curve].

Regarding `Cc1cccn2c(=O)cc(COc3cccc(NC(=O)c4cccc(Cl)c4)c3)nc12`, the AC50 is, setting by setting: under setting [1], 1.26 µM [rising, full curve, poor fit]; under setting [2], 3.16 µM [rising, single point].

Take `Cc1c(NC(=O)c2ccc(COc3ccc4ccccc4c3)o2)c(=O)n(-c2ccccc2)n1C`: the AC50 runs as follows: under setting [1], 10 µM [rising, partial curve]; under setting [2], 14.1 µM [rising, partial curve].

Consider `CCn1c(=O)n(CC)c2cc(N3CCCC3)c(NC(=O)Nc3cc(C)cc(C)c3)cc21`, for which the AC50 reads like this: under setting [1], 20 µM [falling, single point]; under setting [2], 22.4 µM [falling, single point].

Turning to `O=[N+]([O-])c1ccc(C2Oc3ccccc3C3CC(c4ccccc4)=NN32)s1` (stereo not given), the AC50 under setting [2] is 0.891 µM [rising, partial curve].

Consider `CC(Nc1nc(N2CCCCC2)nc2ccccc12)c1ccccc1` (stereo not given), for which the AC50 was 20 µM [rising, single point] under setting [1] and 22.4 µM [rising, single point] under setting [2].

Turning to `O=C(COC(=O)c1ccc(O)cc1)Nc1ccccc1-c1ccccc1`, the AC50 under setting [2] is 15.8 µM [rising, single point].

On to `Cc1ccc2nc(C)c3c(c2c1)OC(C(C)(Cl)Br)C3` (stereo not given), for which the concentration at half-maximal activity (AC50) under setting [1] is 14.1 µM [falling, partial curve, poor fit].

As to `CN1C(=O)/C(=C\c2cc(N=Nc3ccccc3)ccc2O)SC1=S`, the AC50 by setting is: under setting [1], 10 µM [falling, partial curve]; under setting [2], 11.2 µM [falling, partial curve].

Consider `CCCn1c(NC(=S)Nc2ccccc2)nc2ccccc21`, for which the AC50 under setting [2] is 14.1 µM [rising, partial curve, poor fit].
